We go through one compound from US20140302113A1, “SYSTEMS, DEVICES, AND METHODS FOR EMBEDDING DRUG MOLECULES INTO MEDICAL CATHETERS OR TUBES” (priority 2011, published 2014).

Like-named read-outs stand apart in the source and are kept apart here.

As for `CCN(CC)CC(=O)Nc1c(C)cccc1C` [Lidocaine, lidocaine], the “lidocaine absorbed into the wall of the catheter (initially undissolved particles)” value is “about 470 mg” (out of 550 mg, Experiment 1, autoclave-type heating about one hour) and approximately 510 mg (out of 690 mg, Experiment 2, autoclave-type heating about 60 minutes).
